Data: paper PMC6063412
These are yes or no findings as the source states them, for the method shown. A result given as binding can be weak or reduced; the word gives no strength.

Sequences of proteins named here, by UniProt entry; tags and fusion partners are left off. A change or cut given only in a name is not applied to a line headed by its entry.
UniProt P16234: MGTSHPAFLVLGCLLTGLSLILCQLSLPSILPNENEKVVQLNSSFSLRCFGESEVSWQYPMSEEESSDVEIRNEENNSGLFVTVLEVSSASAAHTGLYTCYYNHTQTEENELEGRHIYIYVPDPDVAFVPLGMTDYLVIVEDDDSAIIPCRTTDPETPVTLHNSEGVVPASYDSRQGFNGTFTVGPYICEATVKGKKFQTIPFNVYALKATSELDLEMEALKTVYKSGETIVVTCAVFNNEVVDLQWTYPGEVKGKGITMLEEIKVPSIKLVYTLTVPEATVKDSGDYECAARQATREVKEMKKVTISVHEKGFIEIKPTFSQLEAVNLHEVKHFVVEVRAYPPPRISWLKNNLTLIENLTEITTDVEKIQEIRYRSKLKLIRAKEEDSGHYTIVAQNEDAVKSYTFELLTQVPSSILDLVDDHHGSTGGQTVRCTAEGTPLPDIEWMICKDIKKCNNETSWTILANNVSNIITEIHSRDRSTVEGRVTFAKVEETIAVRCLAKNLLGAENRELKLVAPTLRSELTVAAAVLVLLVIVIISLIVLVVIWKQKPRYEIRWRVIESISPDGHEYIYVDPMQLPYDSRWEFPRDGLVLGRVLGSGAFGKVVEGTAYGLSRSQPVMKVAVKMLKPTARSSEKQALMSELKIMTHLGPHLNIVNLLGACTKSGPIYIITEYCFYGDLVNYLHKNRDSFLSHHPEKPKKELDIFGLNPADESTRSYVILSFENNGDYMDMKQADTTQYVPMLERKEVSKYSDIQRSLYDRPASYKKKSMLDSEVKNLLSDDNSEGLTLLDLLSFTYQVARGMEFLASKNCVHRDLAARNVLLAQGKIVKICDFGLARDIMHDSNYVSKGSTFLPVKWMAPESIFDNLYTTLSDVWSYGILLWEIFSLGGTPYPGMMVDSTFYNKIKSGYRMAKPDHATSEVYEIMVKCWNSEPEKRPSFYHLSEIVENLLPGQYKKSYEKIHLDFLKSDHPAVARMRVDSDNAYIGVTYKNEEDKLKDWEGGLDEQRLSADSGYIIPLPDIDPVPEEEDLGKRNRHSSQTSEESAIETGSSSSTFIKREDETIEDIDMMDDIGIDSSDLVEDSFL

Target: recombinant PDGFRα protein (UniProt P16234)
Assay: ELISA; 96-well plate coated with recombinant PDGFRα protein (1 μg/ml in 100 mM NaHCO3, 4°C overnight); PDGF ligands applied; quality control of the ligands; both purified

Row | binding | Substance
1 | binds | PDGF-BB (from UniProt P01127) (ligand)
2 | binds | recombinant human PDGF-CC core domain protein (activated PDGF-CC, growth factor domain) (from UniProt Q9NRA1) (ligand)
3 | binds | PDGF-AA (from UniProt P04085) (ligand)
